Among the data in article PMC6106897, “Biocatalytic synthesis of acylated derivatives of troxerutin: their bioavailability and antioxidant properties in vitro” (Microbial Cell Factories, 2018) are Papp A→B and Papp B→A values, retold here.

A short description of this data set: Transport experiment in Caco-2 monolayers. It is filed as in vitro ADME. The note with it: human. The method, then:
The absorptions of troxerutin and its acylated derivatives was measured as described by Chen et al.. Caco-2 cells were cultured in DMEM supplemented with 10% FBS, 100 μg/mL streptomycin, and 100 U/mL penicillin at 37 °C in an atmosphere of 5% CO2 and the medium was changed every 2 days. Caco-2 cells used in this study were seeded onto 12-well translucent Transwell inserts (0.4 μm pore size, Corning Costar, Corning, NY, USA) at a density of 2.5 × 10^5 cells/mL and grown for 3 weeks. Transepithelial electrical resistance (TEER) and lucifer yellow were measured to detect the integrity of Caco-2 monolayers. TEER values were measured by using a voltammeter (Millicell ERS, Millipore, Bedford, MA, USA) and the amount of lucifer yellow transported to the basolateral side in a 2.5-h period was quantified by using a fluorospectrometer (Fluoroskan Ascent FL, Thermo Labsystems, Helsinki, Finland) at an excitation wavelength of 425 nm and emission wavelength of 530 nm. ALP activity was measured to detect the differentiation degree of Caco-2 monolayers by using an ALP Assay Kit.
Samples (100 μM, 0.5 mL) were placed on the apical (AP) side along with 1.5 mL of HBSS added to the basolateral (BL) side. […] The volume removed from the recipient side was replaced with fresh HBSS at 30, 60, 90, 120, and 150 min. The concentrations on the BL side were measured by HPLC. […]
For orientation: Passage across Caco-2 layers is used to estimate intestinal permeability.

By Papp A→B is commonly meant the apparent permeability from the apical to the basolateral side of a cell layer. A low value points to poor permeation. As usually defined, the Papp B→A is the apparent permeability from the basolateral to the apical side of a cell layer. The compound `NS(=O)(=O)c1cc(C(=O)O)c(NCc2ccco2)cc1Cl` [Furosemide, furosemide] had an apical-to-basolateral permeability (Papp A→B) at 150 min, 100 μM of 0.85 ± 0.15 ×10⁻⁶ cm/s and a Papp B→A at 150 min, 100 μM of 0.86 ± 0.11 ×10⁻⁶ cm/s.
